Results are given in words; binding and its absence hold for the method and conditions named. Binding seen in cells or lysates may run through a third protein. A result given as binding can be weak or reduced; the word gives no strength.
Assays:
[1] = target: Flag-Cep152; assay: co-IP; Flag IP: cell lysate with Flag M2 resin in lysis buffer (50 mM Tris HCl pH 7.4, 150 mM NaCl, 1 mM EDTA, 1% Triton X100) for 2 hours at 4°C; washed with PBS; Western blot
[2] = target: MBP-XCep152 (Xenopus laevis); assay: pull-down; amylose resin bound to MBP-XCep152, incubated with in vitro translated 35S-labelled XCep63 without egg extract, in EB buffer (50 mM HEPES pH 7.5, 100 mM KCl, 2.5 mM MgCl2); autoradiography; only the target purified
[3] = target: MBP-XCep152 (Xenopus laevis); assay: pull-down; amylose resin bound to MBP-XCep152, incubated with Xenopus laevis cytostatic factor arrested egg extract (no centrosomes) containing in vitro translated 35S-labelled XCep63; autoradiography; only the target purified

Binder | binding [1] | binding [2] | binding [3]
endogenous Cep63 (protein, UniProt Q96MT8 1-703) MEALLEGIQNRGHGGGFLTSCEAELQELMKQIDIMVAHKKSEWEGRTHALETCLKIREQELKSLRSQLDVTHKEVGMLHQQVEEHEKIKQEMTMEYKQELKKLHEELCILKRSYEKLQKKQMREFRGNTKNHREDRSEIERLTAKIEEFRQKSLDWEKQRLIYQQQVSSLEAQRKALAEQSEIIQAQLVNRKQKLESVELSSQSEIQHLSSKLERANDTICANELEIERLTMRVNDLVGTSMTVLQEQQQKEEKLRESEKLLEALQEEKRELKAALQSQENLIHEARIQKEKLQEKVKATNTQHAVEAIRPREESLAEKKYTSQGQGDLDSVLSQLNFTHTSEDLLQAEVTCLEGSLESVSATCKQLSQELMEKYEELKRMEAHNNEYKAEIKKLKEQILQGEQSYSSALEGMKMEISHLTQELHQRDITIASTKGSSSDMEKRLRAEMQKAEDKAVEHKEILDQLESLKLENRHLSEMVMKLELGLHEAKEISLADLQENYIEALNKLVSENQQLQKDLMNTKSQLEISTQMCKKQNDRIFKPTHSRTTEFKNTEFKPTHGQHRHDGIKTEHYKTDLHSPRGQASDSINPMSRVLSPLSPQISPCSSTRSLTSYSLCKTHSLPSALDTNEANFSDTMSESMNDQEEFISSCSLPVSPLGSIATRFLEEEELRSHHILERLDAHIEELKRESEKTVRQFTALK | binds |  | 
35S-XCep63 (protein, UniProt B9V5F5 1-649, labelled with 35S methionine) MEALLQGLQRQDRMGALQDSCEAELQELMKQIDIMLDHKRSQWEAETETMKTRLELKEQELNCALDREERLNQEVRRLRQQLIQQEEETQNKTTQYEAQLSGFKEELNRLKKSYEKVQKKHLRSEMKAKAEEERSEVSRLTRRLEEFRQRSLDWEKQRLLYQQQLAGLEAQRKTLIEQTEMYQHQSHNRKQMLEQTSLVGRSELQNLSGQLHRANDSLCAKEEELETLKIQLRCAVEGQKRAEHETELSKQAVQALKEEKAELRATLQAHTEFLQGSRVQKHELLPEGYRGSEVLRENNSIRSVEERLQEMGQVGGETEVEAIRSKLSVSRMNEHRLQAEVTCLEDSVESVTSQCQLLAKELKGKEEYFHGVKEDHQKCLSENKKLKGQLSQAELTHKSVLDGMRKEISQLTQELHQRDIRMASSAGIDWERKIKAERQRAEREAAEHRMSLNALENLRQENCRLSELLQTQEPDVAQALVNLEQANQRLQRELLQTQEKLELIAQRRESEIQNAVDSISQELLNKQEQELRIMQERLKVYEQEMQTFRSQQDAASSGSSLESIFSEVWKEQATGSPISAASVDSAIEPVEDLASSLPVPPTSPANAVASRFLQEEEQRSHELLQRLNAHIEELKQESQRTVEHFTQAR |  | binds | binds

Source: paper PMC3728344
